Results are given in words; binding and its absence hold for the method and conditions named. In cells and extracts the contact can be indirect. Some binding calls cover weakened binding; strength is not graded here.

Sequences of proteins named here, by UniProt entry; tags and fusion partners are left off.
UniProt Q93009: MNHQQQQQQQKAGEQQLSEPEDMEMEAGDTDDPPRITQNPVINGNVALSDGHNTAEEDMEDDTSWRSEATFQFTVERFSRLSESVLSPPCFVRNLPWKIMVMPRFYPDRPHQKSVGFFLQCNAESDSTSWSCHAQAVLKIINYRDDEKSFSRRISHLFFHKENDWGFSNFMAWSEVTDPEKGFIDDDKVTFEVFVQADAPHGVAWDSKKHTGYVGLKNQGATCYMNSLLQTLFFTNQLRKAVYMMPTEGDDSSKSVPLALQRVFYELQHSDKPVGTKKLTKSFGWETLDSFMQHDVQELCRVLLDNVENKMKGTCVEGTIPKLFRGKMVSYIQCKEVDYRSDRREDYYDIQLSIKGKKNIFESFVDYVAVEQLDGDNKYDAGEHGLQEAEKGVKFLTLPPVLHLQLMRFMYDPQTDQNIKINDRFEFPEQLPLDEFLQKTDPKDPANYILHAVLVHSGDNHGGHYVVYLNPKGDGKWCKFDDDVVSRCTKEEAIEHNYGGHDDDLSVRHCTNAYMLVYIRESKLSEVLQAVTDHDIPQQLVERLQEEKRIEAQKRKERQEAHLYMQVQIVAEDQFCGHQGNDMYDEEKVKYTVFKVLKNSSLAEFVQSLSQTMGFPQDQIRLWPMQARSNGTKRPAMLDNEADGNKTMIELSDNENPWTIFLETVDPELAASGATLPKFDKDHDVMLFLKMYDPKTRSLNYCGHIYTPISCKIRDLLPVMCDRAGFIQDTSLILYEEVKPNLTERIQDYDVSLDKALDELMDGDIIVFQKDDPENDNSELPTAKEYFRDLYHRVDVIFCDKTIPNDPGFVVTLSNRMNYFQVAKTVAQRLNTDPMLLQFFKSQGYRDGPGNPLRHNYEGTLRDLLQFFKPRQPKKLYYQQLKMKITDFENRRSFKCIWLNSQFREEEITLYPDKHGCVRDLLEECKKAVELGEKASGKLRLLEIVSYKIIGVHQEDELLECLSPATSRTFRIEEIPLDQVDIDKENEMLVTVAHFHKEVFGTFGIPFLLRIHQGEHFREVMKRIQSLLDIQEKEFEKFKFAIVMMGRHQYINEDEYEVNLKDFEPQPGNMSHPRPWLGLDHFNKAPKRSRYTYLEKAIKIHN
UniProt O00425: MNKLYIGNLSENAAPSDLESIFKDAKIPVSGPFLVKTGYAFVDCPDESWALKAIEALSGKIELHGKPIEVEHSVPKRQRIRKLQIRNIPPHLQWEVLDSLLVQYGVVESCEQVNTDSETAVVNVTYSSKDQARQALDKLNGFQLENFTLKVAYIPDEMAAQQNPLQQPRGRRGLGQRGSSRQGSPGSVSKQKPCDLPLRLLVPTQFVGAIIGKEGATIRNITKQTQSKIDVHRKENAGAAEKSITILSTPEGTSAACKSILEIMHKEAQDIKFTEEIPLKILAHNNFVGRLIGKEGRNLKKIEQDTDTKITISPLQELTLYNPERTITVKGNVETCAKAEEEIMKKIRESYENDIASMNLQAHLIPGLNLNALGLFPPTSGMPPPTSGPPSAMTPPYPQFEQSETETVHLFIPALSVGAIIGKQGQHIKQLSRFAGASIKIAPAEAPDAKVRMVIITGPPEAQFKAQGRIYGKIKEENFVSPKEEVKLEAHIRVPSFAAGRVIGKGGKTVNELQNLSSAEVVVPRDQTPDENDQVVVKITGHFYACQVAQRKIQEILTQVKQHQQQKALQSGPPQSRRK

One test has as its target Myc-USP7 (UniProt Q93009). Put plainly: co-IP; HEK293T cells co-transfected with Myc-USP7 and Flag-tagged IGF2BP3 plasmids, with or without circSIPA1L3 plasmid; immunoprecipitated with anti-Myc or anti-Flag antibodies, western blot. (A western blot detects proteins with antibodies after separation by electrophoresis.)
The target in test [1] is IGF2BP3 (human (endogenous in breast cancer cells)) (UniProt O00425). Put plainly: co-IP; endogenous IGF2BP3 and USP7; cells and precipitating antibody not told in the text shown (Figure S18D, E).

Take “Flag-IGF2BP3 (from UniProt O00425 1-579)”: the binding entry with Myc-USP7 is recorded as “binds”.
Turning to “ubiquitin specific peptidase 7 (USP7) (from UniProt Q93009 1-1102) (enzyme)”, in test [1], the binding entry is listed as “binds”.

The values are drawn from article PMC11161950.
